The record followed here is patent US20190388522A1.

The chains behind the UniProt entries cited, without tags or fusion partners. Residues count along the entry.
UniProt P24055, residues 33-292: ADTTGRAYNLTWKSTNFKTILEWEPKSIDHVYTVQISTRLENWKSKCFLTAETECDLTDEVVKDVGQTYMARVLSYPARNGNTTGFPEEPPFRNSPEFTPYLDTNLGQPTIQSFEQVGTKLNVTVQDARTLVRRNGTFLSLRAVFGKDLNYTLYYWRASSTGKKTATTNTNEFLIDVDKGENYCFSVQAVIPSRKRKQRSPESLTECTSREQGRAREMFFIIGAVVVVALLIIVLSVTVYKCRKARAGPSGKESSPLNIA
UniProt P08709, residues 61-466: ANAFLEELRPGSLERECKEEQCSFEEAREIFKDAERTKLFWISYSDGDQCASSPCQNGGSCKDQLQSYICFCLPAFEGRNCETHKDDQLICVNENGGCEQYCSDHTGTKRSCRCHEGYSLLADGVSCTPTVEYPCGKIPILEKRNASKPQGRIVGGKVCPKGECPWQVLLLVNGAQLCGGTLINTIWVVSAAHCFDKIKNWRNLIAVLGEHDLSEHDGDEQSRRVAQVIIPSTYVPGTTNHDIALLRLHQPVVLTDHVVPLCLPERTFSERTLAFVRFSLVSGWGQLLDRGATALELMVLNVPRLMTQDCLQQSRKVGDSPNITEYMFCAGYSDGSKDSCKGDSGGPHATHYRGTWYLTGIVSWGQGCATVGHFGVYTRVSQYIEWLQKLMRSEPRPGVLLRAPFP

The assay has as its target Lipidated rabbit tissue factor (rabbit) (UniProt P24055). The assay is described as follows: SPR (Biacore), lipidated TF on chip.

Results are given in words; binding and its absence hold for the method and conditions named. Some entries that bind do so weakly or less than the wild type.

Turning to “Human Factor VIIa (from UniProt P08709 61-466) (enzyme)”, the binding result is on record as “binds”.
